PubChem BioAssay AID686938 | Drosophila RNAi Screening Center, 2013
In all, the deposit lists about 23,000 reagents; below is a random part of those with a known target gene and a result. Of all reagents, 75 (0.33%) are marked active. 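Raw plate signals without normalisation; calls rest on plate z-scores that were not deposited; ratio present for only 364 wells.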 Unmarked entries are inactive. Names joined by + are all predicted targets of the reagent. Reagent sequences are not shown. The record does not give: the dose of the treatment.

- Aim: 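Looking for CRAC channel components and the factors controlling them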 (primary screen)
- System: Drosophila S2R+ cells
- Reagent: long dsRNA against Drosophila genes, about 0.25 µg dsRNA per well, roughly 10,000 cells
- Timing: 5 days of knock-down before the calcium assay
- Challenge: thapsigargin (SERCA pump blocker) to empty calcium stores; entry signal taken 4 min after adding it
- Read-out: 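Duplicate raw fluo-4 intensities per well from a plate reader, at rest and four minutes after thapsigargin emptied calcium stores; entry-to-rest ratio filled for only some wells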
- Reading the numbers: calcium entry signal: higher = stronger calcium signal after store depletion; resting calcium signal: higher = higher resting calcium signal
- Hit rule: 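Called when the plate z-score of the entry-to-rest ratio, mean of duplicates, falls below −3; wells with low overall dye signal (Fmax z below −2) or more than five off-targets excluded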
- Calls: active = strongly reduced calcium entry; inactive = no strong reduction

gene | dsRNA | calcium entry signal, replicate 1 (fluorescence units) | calcium entry signal, replicate 2 (fluorescence units) | resting calcium signal, replicate 1 (fluorescence units) | resting calcium signal, replicate 2 (fluorescence units)
Dad1 | DRSC02263 | 2.35e7 | 4.33e7 | 1.26e7 | 2.02e7
CG15919 | DRSC06594 | 4.44e7 | 3.45e7 | 2.57e7 | 1.75e7
CG7101 | DRSC20023 | 4.45e7 | 4.97e7 | 2.09e7 | 2.08e7
CG7101 | DRSC22845 | 2.59e7 | 3.96e7 | 1.39e7 | 1.84e7
CG12239 | DRSC17832 | 2.59e7 | 2.33e7 | 1.30e7 | 1.29e7
CG15579 | DRSC18067 | 3.18e7 | 4.74e7 | 1.60e7 | 2.03e7
Rca1 | DRSC03407 | 2.53e7 | – | 1.80e7 | –
CG6094 | DRSC02927 | 3.21e7 | 4.68e7 | 1.54e7 | 2.20e7
CG6094 | DRSC22705 | 5.20e7 | 4.91e7 | 2.45e7 | 1.61e7
scat | DRSC02722 | 4.74e7 | – | 2.23e7 | –
CG14322 | DRSC14801 | 2.95e7 | 3.61e7 | 4.43e7 | 1.58e7
CG3868 | DRSC10380 | 2.32e7 | 3.23e7 | 1.15e7 | 2.28e7
Naus | DRSC06011 | 3.24e7 | 3.27e7 | 1.47e7 | 1.62e7
Naus | DRSC06469 | 5.09e7 | 5.42e7 | 2.47e7 | 2.66e7
Muc18B | DRSC20064 | 5.45e7 | 5.55e7 | 2.54e7 | 2.42e7
Muc18B | DRSC21644 | 3.71e7 | 3.73e7 | 1.91e7 | 1.75e7
Ugt36F1 | DRSC02601 | 3.34e7 | 4.03e7 | 1.63e7 | 1.67e7
Oatp74D | DRSC09491 | 3.65e7 | 3.35e7 | 1.80e7 | 1.47e7
Oatp74D | DRSC10883 | 3.95e7 | 4.41e7 | 1.89e7 | 2.88e7
muskelin | DRSC07273 | 3.53e7 | 3.60e7 | 1.84e7 | 1.69e7
trn | DRSC11407 | 3.50e7 | 4.53e7 | 1.76e7 | 1.94e7
CG9067 | DRSC07328 | 2.38e7 | 4.02e7 | 1.32e7 | 1.83e7
CG7366 | DRSC10825 | 2.57e7 | 1.95e7 | 1.31e7 | 1.06e7
Nha2 + asRNA:CR43454 | DRSC13594 | 3.26e7 | 3.02e7 | 1.77e7 | 1.61e7
